Data as given in publication PMC12260538.
Results are given in words; binding and its absence hold for the method and conditions named. Binding seen in cells or lysates may run through a third protein. Some results given as binding are weak or reduced against the parent protein; the word gives no strength.

Target: T1, STING (stimulator of interferon genes) (mouse (endogenous in lung tissue)) (UniProt Q3TBT3)
T1 sequence: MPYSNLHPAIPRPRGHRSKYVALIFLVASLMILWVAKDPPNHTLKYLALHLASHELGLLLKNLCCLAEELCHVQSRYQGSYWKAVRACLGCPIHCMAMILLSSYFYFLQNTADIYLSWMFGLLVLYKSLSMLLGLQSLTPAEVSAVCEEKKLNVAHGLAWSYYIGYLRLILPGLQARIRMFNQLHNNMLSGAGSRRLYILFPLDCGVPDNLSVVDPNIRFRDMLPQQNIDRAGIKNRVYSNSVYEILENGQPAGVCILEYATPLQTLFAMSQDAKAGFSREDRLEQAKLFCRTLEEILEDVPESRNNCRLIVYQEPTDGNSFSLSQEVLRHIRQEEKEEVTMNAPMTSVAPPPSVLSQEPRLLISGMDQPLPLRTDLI
Assay: co-IP; lung tissue lysates of mice of the Control and PR8 groups; mild lysis buffer (20 mM Tris/HCl pH 7.6, 150 mM NaCl, 20 mM KCl, 1.5 mM MgCl2, 0.5% NP-40); anti-STING, anti-GSDMD or normal IgG on Protein A/G beads, overnight at 4°C; washed with TBST 0.1% Tween 20; immunoblot

B1: gasdermin D (GSDMD) (protein, UniProt Q9D8T2 1-487)
chain: MPSAFEKVVKNVIKEVSGSRGDLIPVDSLRNSTSFRPYCLLNRKFSSSRFWKPRYSCVNLSIKDILEPSAPEPEPECFGSFKVSDVVDGNIQGRVMLSGMGEGKISGGAAVSDSSSASMNVCILRVTQKTWETMQHERHLQQPENKILQQLRSRGDDLFVVTEVLQTKEEVQITEVHSQEGSGQFTLPGALCLKGEGKGHQSRKKMVTIPAGSILAFRVAQLLIGSKWDILLVSDEKQRTFEPSSGDRKAVGQRHHGLNVLAALCSIGKQLSLLSDGIDEEELIEAADFQGLYAEVKACSSELESLEMELRQQILVNIGKILQDQPSMEALEASLGQGLCSGGQVEPLDGPAGCILECLVLDSGELVPELAAPIFYLLGALAVLSETQQQLLAKALETTVLSKQLELVKHVLEQSTPWQEQSSVSLPTVLLGDCWDEKNPTWVLLEECGLRLQVESPQVHWEPTSLIPTSALYASLFLLSSLGQKPC
binding: binds
